In this assay the target is T1, Cas2 (Escherichia coli) (UniProt P45956).
T1 sequence: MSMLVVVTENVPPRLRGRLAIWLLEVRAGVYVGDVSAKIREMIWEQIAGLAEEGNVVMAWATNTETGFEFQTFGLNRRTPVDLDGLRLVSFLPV
As to the kind of experiment: co-purification of a co-expressed complex; Cas1 variant and Cas2-His co-expressed from pETDuet in E. coli BL21-DE3 (0.5 mM IPTG, 25°C, 22 h); the complex purified as described in ref. 30.

Changes are numbered by the printed parent chain. Names and notes keep the numbering of the source. These are yes or no findings as the source states them, for the method shown. Some entries that bind do so weakly or less than the wild type.

B1: wild-type Cas1 (enzyme, UniProt Q46896 1-305)
chain: MTWLPLNPIPLKDRVSMIFLQYGQIDVIDGAFVLIDKTGIRTHIPVGSVACIMLEPGTRVSHAAVRLAAQVGTLLVWVGEAGVRVYASGQPGGARSDKLLYQAKLALDEDLRLKVVRKMFELRFGEPAPARRSVEQLRGIEGSRVRATYALLAKQYGVTWNGRRYDPKDWEKGDTINQCISAATSCLYGVTEAAILAAGYAPAIGFVHTGKPLSFVYDIADIIKFDTVVPKAFEIARRNPGEPDREVRLACRDIFRSSKTLAKLIPLIEDVLAAGEIQPPAPPEDAQPVAIPLPVSLGDAGHRSS
As to B1, the binding result was “binds”.

B2: Cas1-E269G (enzyme, UniProt Q46896 1-305)
chain: B1 chain with E269G
As for B2, the binding result was “binds”.

B3: dead Cas1 (Cas1^D221A) (enzyme, UniProt Q46896 1-305)
chain: B1 chain with D221A
In the case of B3, the binding result is “binds”.

B4: Cas1-S1,S2 (Cas1 with E269G and V76L) (enzyme, UniProt Q46896 1-305)
chain: B1 chain with V76L, E269G
On to B4, for which the binding result is given as “binds”.

B5: Cas1-V76L (enzyme, UniProt Q46896 1-305)
chain: B1 chain with V76L
On to B5, for which the binding result was “binds”.

The values are drawn from publication PMC10415146.
